Data source: PubChem BioAssay AID1259254 (NCATS, 2017)
In all, the deposit lists about 59,000 reagents; below is a random part of them. About 1,550 of all reagents (2.6%) were called active. 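G2 share is only a proxy for re-replication; each gene was hit by three separate siRNAs, and active genes were retested.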 Raw values vary from plate to plate and are shown uncorrected. Reagents against one gene are numbered here. No sequences are given here. The record does not give: the amount of reagent.

- Screen: 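Genome-wide screen for genes that prevent DNA re-replication in cancer cells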 (primary screen)
- Cell system: human HCT116 colorectal cancer cells
- Reagent: single siRNA against human genes
- Time to read-out: 3 days
- Detection: 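Nuclei stained with Hoechst and imaged; cell-cycle phase assigned by DNA content; G2 share scaled per plate, non-targeting siRNA 0%, GMNN siRNA 100%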
- Reading the numbers: G2 robust z-score and G2 cells, % of GMNN control: higher = more G2 cells, more excess DNA replication; raw share of cells in G2: higher = larger share of cells with G2 DNA content
- Hit rule: 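Active siRNAs have a G2 robust z of 5 or more median absolute deviations over the median, which in these data means about 38% or higher of GMNN control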

gene symbol	siRNA no.	G2 robust z-score	G2 cells, % of GMNN control	raw share of cells in G2 (%)	Outcome
GCLM	1	6.33	47.5	22.5	active
GCLM	2	-0.868	-3.14	4.07	inactive
GCLM	3	1.78	15.5	9.19	inactive
GNL2	1	-0.14	1.98	4.64	inactive
GNL2	2	-0.000619	2.96	5.17	inactive
GNL2	3	1.28	12	11.6	inactive
RREB1	1	3.63	28.5	14.8	inactive
RREB1	2	-1.05	-4.43	2.99	inactive
RREB1	3	3.21	25.5	12.6	inactive
FOXL2	1	-1.59	-8.19	1.93	inactive
FOXL2	2	-0.567	-1.02	4.71	inactive
FOXL2	3	0.779	8.45	7.14	inactive
CIZ1	1	-1.23	-5.69	2.27	inactive
CIZ1	2	-0.476	-0.383	3.77	inactive
CIZ1	3	-0.545	-0.868	3	inactive
DNM1L	1	7.29	54.2	25.7	active
DNM1L	2	-0.544	-0.862	4.4	inactive
DNM1L	3	1.78	15.5	8.5	inactive
FAM86B1	1	-0.876	-3.2	1.91	inactive
FAM86B1	2	-0.274	1.04	4.53	inactive
FAM86B1	3	0.132	3.89	4.22	inactive
CYP2C8	1	0.0527	3.34	5.25	inactive
CYP2C8	2	-0.866	-3.13	3.85	inactive
CYP2C8	3	-1.32	-6.34	2.68	inactive
TUBB	1	2.33	19.4	12.8	inactive
TUBB	2	1.1	10.7	11.1	inactive
TUBB	3	1.2	11.4	8.87	inactive
REX1BD	1	-0.379	0.3	3.23	inactive
REX1BD	2	2.86	23.1	13.4	inactive
REX1BD	3	0.981	9.87	8.23	inactive
PRNP	1	-0.777	-2.5	3.91	inactive
PRNP	2	-0.534	-0.79	3.91	inactive
PRNP	3	-0.273	1.05	3.73	inactive
GPALPP1	1	-0.322	0.702	4.79	inactive
GPALPP1	2	0.389	5.7	6.5	inactive
GPALPP1	3	1.86	16	8.25	inactive
PIEZO1P1	1	-0.054	2.59	3.87	inactive
PIEZO1P1	2	0.108	3.73	5.18	inactive
PIEZO1P1	3	-0.576	-1.08	2.82	inactive
PDLIM2	1	-0.147	1.94	4.93	inactive
PDLIM2	2	-0.915	-3.47	4.21	inactive
PDLIM2	3	-0.329	0.655	4.58	inactive
OTUD7A	1	-0.467	-0.318	4.57	inactive
OTUD7A	2	-0.665	-1.71	5.14	inactive
OTUD7A	3	5.33	40.5	19.5	active
GEMIN8	1	1.44	13.1	8.3	inactive
GEMIN8	2	2.4	19.9	12.6	inactive
GEMIN8	3	4.7	36	15.1	inactive
PLEKHA7	1	0.243	4.68	5.4	inactive
PLEKHA7	2	0.621	7.34	5.18	inactive
PLEKHA7	3	-0.893	-3.32	1.91	inactive
FLJ13224	1	-0.625	-1.43	3.85	inactive
FLJ13224	2	0.619	7.32	7.51	inactive
FLJ13224	3	-0.864	-3.11	1.53	inactive
RPL7P23	1	2.58	21.1	11.1	inactive
RPL7P23	2	4.61	35.4	14.3	inactive
RPL7P23	3	3.78	29.6	14.9	inactive
KLK4	1	0.565	6.94	7.98	inactive
KLK4	2	1.6	14.2	9.94	inactive
KLK4	3	-0.911	-3.44	2.63	inactive
ANKRD2	1	-1.28	-6.02	2.15	inactive
ANKRD2	2	-0.128	2.07	4.84	inactive
ANKRD2	3	-0.255	1.17	3.71	inactive
C1QL1	1	-0.349	0.51	5.18	inactive
C1QL1	2	-0.651	-1.61	3.47	inactive
C1QL1	3	-0.402	0.141	3.23	inactive
GJA9	1	0.737	8.15	5.67	inactive
GJA9	2	-1.03	-4.28	3.97	inactive
GJA9	3	-0.0539	2.59	4.45	inactive
MAP3K7	1	-1.23	-5.7	3.72	inactive
MAP3K7	2	-0.458	-0.256	5.32	inactive
MAP3K7	3	-0.496	-0.523	3.84	inactive
MLANA	1	2.8	22.7	15.9	inactive
MLANA	2	0.164	4.12	5.6	inactive
MLANA	3	0.167	4.14	5.15	inactive
SIGLEC9	1	-0.915	-3.47	2.85	inactive
SIGLEC9	2	0.683	7.78	9.69	inactive
SIGLEC9	3	-0.936	-3.62	2.99	inactive
PTTG1IP	1	0.0664	3.43	6.91	inactive
PTTG1IP	2	1.51	13.6	9.06	inactive
PTTG1IP	3	1.48	13.4	8.76	inactive
TSPAN19	1	-0.171	1.77	4.42	inactive
TSPAN19	2	-0.727	-2.15	2.25	inactive
TSPAN19	3	4.51	34.7	15.2	inactive
CBFA2T2	1	-0.956	-3.76	2.28	inactive
CBFA2T2	2	0.995	9.97	10.4	inactive
CBFA2T2	3	2.51	20.6	12	inactive
